Patent US20070042437A1
No constants are given. Whether binding was seen depends on the method and setting. Some entries that bind do so weakly or less than the wild type.

Sequences of proteins named here, by UniProt entry; tags and fusion partners are left off. Residues count along the entry.
UniProt P24062, residues 31-1370: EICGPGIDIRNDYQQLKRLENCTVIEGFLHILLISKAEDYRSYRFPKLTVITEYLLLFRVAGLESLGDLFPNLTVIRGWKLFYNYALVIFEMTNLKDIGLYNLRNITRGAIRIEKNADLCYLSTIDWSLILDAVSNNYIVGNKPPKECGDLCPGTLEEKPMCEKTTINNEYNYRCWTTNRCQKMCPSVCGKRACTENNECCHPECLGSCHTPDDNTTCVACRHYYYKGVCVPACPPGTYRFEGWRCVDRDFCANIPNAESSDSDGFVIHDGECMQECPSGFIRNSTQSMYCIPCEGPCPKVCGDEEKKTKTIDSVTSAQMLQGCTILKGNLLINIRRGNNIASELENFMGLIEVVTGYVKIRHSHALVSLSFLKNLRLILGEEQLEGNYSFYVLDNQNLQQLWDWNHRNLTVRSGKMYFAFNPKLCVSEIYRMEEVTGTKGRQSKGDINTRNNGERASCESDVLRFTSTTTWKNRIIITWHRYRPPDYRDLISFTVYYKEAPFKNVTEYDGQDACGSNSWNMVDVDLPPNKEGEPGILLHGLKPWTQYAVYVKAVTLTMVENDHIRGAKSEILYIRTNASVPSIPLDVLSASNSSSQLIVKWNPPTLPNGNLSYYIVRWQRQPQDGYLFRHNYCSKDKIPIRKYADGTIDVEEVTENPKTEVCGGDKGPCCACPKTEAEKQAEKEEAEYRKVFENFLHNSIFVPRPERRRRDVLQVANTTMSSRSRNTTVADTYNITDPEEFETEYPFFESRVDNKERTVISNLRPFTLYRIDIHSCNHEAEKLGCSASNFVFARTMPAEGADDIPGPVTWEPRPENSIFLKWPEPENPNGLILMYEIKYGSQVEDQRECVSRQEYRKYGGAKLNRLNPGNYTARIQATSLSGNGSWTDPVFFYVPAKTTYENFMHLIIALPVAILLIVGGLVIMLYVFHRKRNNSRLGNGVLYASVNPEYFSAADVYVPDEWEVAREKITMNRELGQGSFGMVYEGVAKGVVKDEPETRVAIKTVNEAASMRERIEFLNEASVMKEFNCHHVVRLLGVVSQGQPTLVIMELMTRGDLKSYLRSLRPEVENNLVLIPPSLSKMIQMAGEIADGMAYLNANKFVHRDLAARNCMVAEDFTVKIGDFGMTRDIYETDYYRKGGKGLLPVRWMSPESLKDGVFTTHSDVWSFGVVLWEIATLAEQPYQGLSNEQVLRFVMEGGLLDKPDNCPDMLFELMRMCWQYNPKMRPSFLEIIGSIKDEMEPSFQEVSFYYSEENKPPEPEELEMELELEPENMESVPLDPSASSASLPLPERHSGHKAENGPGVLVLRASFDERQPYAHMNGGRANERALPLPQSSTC
UniProt P11717, residues 41-2491: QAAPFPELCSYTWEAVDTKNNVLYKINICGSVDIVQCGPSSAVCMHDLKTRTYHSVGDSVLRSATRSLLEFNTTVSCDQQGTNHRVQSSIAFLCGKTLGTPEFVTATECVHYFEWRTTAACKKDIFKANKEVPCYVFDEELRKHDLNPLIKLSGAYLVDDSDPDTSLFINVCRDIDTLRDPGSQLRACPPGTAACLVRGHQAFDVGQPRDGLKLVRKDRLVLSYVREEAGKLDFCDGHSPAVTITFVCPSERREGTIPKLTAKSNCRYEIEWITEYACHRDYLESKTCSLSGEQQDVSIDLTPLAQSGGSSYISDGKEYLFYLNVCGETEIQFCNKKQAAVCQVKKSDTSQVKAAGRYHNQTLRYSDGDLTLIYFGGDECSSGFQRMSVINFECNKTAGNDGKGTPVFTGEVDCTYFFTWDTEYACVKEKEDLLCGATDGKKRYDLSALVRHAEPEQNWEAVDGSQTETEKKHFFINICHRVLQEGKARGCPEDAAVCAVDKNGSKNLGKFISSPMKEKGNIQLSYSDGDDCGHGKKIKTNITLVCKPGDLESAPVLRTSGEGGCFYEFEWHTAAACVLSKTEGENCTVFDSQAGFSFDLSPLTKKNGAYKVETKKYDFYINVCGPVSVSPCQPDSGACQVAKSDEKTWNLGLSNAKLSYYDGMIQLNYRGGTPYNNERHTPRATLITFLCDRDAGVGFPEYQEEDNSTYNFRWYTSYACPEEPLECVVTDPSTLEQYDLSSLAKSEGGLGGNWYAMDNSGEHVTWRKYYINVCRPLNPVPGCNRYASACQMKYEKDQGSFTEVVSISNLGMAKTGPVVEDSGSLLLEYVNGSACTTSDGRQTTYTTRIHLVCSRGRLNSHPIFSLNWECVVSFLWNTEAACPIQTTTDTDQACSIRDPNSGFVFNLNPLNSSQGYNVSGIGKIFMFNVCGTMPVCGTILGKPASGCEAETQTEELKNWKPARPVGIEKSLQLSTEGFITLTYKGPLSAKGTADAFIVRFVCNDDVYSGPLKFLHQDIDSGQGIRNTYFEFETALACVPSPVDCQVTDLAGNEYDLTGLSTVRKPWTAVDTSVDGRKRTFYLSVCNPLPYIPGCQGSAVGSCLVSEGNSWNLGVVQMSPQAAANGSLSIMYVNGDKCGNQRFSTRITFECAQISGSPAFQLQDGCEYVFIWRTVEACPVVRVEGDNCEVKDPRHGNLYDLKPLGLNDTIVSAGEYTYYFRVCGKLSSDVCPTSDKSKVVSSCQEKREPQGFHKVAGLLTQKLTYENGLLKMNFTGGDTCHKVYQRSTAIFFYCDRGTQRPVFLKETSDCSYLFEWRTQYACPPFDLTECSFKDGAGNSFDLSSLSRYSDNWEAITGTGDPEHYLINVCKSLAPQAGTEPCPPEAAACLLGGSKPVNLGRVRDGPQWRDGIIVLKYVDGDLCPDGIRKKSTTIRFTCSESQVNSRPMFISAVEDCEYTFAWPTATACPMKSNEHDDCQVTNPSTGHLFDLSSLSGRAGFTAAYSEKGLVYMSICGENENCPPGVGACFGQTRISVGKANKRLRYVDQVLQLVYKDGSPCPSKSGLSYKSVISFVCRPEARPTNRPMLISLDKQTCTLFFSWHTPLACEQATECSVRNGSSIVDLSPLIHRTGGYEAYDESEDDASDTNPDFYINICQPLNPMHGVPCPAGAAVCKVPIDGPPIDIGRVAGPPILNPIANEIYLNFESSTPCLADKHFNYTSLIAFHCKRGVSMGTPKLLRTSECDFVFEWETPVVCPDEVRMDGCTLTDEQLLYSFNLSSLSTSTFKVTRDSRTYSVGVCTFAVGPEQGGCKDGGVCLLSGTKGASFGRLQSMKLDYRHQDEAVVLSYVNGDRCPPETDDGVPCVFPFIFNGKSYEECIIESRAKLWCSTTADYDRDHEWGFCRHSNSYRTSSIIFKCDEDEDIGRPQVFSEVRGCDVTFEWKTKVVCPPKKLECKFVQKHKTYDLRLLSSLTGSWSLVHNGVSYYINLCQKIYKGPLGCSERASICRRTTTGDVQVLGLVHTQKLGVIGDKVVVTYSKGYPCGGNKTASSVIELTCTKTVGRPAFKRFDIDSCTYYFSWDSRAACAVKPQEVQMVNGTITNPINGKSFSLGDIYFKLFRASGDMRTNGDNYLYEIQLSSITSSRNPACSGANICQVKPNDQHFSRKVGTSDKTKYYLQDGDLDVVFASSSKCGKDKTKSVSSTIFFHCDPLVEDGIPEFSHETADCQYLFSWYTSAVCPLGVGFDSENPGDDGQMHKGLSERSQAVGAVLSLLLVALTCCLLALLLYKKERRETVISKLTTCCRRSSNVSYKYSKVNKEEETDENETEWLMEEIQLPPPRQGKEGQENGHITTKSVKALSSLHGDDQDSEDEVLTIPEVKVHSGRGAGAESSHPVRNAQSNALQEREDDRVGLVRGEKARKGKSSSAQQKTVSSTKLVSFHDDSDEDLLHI
UniProt P05019, residues 49-118: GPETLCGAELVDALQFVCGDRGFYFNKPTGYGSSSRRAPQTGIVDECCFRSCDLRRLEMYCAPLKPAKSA
UniProt P01344, residues 25-91: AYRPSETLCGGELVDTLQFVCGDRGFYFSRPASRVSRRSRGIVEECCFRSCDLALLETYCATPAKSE

Key:
[1] = target: IGF-I receptor (rat brain membrane extracts) (rat) (UniProt P24062); assay: equilibrium binding, rat temporal lobe membrane extracts (FIG. 20B)
[2] = target: IGF-I receptor (rat brain membrane extracts) (rat) (UniProt P24062); assay: equilibrium binding, 50 pM [125I]-IGF-I, rat brain membrane extracts
[3] = target: IGF-I receptor (rat brain membrane extracts) (rat) (UniProt P24062); assay: equilibrium binding, 50 pM tracer, rat brain membrane proteins (FIGS. 29D-29F)
[4] = target: IGF-I receptor (rat brain membrane extracts) (rat) (UniProt P24062); assay: saturation binding, 0.5-500 pM tracer, rat brain membrane protein extracts (FIG. 30)
[5] = target: IGF-I receptor (rat brain membrane extracts) (rat) (UniProt P24062); assay: competitive equilibrium binding, [125I]-IGF-I, rat temporal lobe membrane extracts
[6] = target: IGF-I receptor (rat brain membrane extracts) (rat) (UniProt P24062); assay: competitive saturation binding, rat brain membrane extracts
[7] = target: IGF-II receptor (human brain, postmortem frontal lobe membrane extracts) (human) (UniProt P11717); assay: equilibrium binding, human frontal lobe membrane extracts (FIG. 12C)
[8] = target: IGF-II receptor (human brain, postmortem frontal lobe membrane extracts) (human) (UniProt P11717); assay: saturation binding / Scatchard analysis, human frontal lobe membrane extracts
[9] = target: IGF-II receptor (rat brain membrane extracts) (rat); assay: equilibrium binding, rat temporal lobe membrane extracts (FIG. 20C)
[10] = target: IGF-II receptor (human brain, postmortem frontal lobe membrane extracts) (human) (UniProt P11717); assay: saturation binding, human frontal lobe membrane extracts
[11] = target: IGF-II receptor (rat brain membrane extracts) (rat); assay: saturation binding, 0.5-500 pM tracer, rat brain membrane protein extracts (FIG. 30)
[12] = target: IGF-II receptor (rat brain membrane extracts) (rat); assay: equilibrium binding, 50 pM [125I]-IGF-II, rat brain membrane extracts
[13] = target: IGF-II receptor (human brain, postmortem frontal lobe membrane extracts) (human) (UniProt P11717); assay: equilibrium binding, 50 pM [125I]-IGF-II, human frontal lobe membrane extracts
[14] = target: IGF-II receptor (rat brain membrane extracts) (rat); assay: equilibrium binding, 50 pM tracer, rat brain membrane proteins (FIGS. 29G-29I)
[15] = target: IGF-II receptor (rat brain membrane extracts) (rat); assay: competitive equilibrium binding, [125I]-IGF-II, rat temporal lobe membrane extracts
[16] = target: IGF-II receptor (human brain, postmortem frontal lobe membrane extracts) (human) (UniProt P11717); assay: saturation binding, human frontal lobe membrane extracts (FIGS. 13I-13L)
[17] = target: IGF-II receptor (rat brain membrane extracts) (rat); assay: competitive saturation binding, rat brain membrane extracts

Measured: binding

Human recombinant [125I] IGF-I (from UniProt P05019 49-118) (ligand)
binds: [1] | [2] | [3] | [4] | [5] | [6]

Human recombinant [125I] IGF-II (from UniProt P01344 25-91) (ligand)
not listed: [1] | [2] | [3] | [4] | [5] | [6]
binds: all other assays above
